Experimental data reported in US8354414B2, “Substituted bicyclic pyrimidines” (Cephalon, Inc, priority 2006, dated 2013).
The match of structure and compound is tentative.

Protein sequences, listed by entry. Tags and fused reporters are not part of them. Residues count along the entry.
UniProt P49841, 2-419 limits assumed: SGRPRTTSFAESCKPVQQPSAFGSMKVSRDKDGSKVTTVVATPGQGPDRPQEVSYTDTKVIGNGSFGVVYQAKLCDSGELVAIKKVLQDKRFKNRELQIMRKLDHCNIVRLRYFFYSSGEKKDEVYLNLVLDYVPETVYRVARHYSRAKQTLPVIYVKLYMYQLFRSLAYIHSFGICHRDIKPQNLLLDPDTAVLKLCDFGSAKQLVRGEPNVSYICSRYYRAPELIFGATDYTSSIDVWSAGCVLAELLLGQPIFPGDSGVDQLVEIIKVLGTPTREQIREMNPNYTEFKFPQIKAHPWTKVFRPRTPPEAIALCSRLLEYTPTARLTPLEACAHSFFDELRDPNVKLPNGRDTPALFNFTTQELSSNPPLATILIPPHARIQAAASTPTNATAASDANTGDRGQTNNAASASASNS
UniProt Q00535, whole entry: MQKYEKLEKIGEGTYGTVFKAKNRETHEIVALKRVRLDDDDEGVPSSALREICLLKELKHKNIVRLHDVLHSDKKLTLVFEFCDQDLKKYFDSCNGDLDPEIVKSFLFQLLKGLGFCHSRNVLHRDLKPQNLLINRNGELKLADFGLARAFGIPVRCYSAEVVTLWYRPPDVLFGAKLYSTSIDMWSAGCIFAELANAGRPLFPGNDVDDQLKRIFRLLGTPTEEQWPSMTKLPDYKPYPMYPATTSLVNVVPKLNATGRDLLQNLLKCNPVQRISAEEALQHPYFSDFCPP
UniProt Q15078, 108-307 partner limits assumed: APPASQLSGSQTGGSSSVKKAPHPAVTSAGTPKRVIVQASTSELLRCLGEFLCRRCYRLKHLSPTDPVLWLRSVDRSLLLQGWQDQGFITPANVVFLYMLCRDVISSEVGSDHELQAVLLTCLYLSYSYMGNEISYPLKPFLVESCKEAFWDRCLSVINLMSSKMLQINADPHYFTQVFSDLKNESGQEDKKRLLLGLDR

Legend:
His6-GSK-3β = His6-GSK-3β (Homo sapiens, UniProt P49841); assay: Inhibition of His6-GSK-3β kinase activity (ELISA-based format, time-resolved fluorescence readout); type: biochemical; settings: read-out: GSK3β IC50; class symbols
Text: Full-length GSK-3β was amplified from a sequence-verified I.M.A.G.E. EST acquired from Research Genetics (Invitrogen, Clone ID# CSODB003YJ02). The final sequence-verified cDNA contained the coding region for a NH2-terminal tag, which encoded for 6 histidines and then eight vector-encoded amino acids prior to the start of GSK3β, which contained by # 43-1342 of Genbank Accession # NM_002093, encoding amino acids #2-419. The predicted molecular weight of the tagged, 435 amino acid, full-length protein is 48.5 kDa. The major structural element of this protein is the kinase domain, which is from amino acids #56-340. Recombinant baculoviral DNA was prepared by transposition in E. coli (BAC-TO-BAC system: Invitrogen) and the virus generated and amplified in Sf21 insect cells. […]
Inhibitory effects of compounds on baculoviral GSK-3β kinase activity were evaluated using an ELISA-based format in a 384-well FluoroNunc Maxisorp plate (Cat # 460372) with a time-resolved fluorescence readout. […] The plate was gently agitated and after a few minutes, the fluorescence of the resulting solution was measured using a Multilabel Reader (Victor2 Model # 1420-018 or Envision Model 2100). Inhibition data were analyzed using ActivityBase and IC50 curves were generated using XLFit 3.0.5.

CDK5/GST-p25 = CDK5/GST-p25 (Homo sapiens, UniProt Q00535); assay: Inhibition of CDK5/GST-p25 kinase activity (ELISA with time-resolved fluorescence readout); settings: read-out: CDK5 IC50; class symbols
Procedure: Two recombinant baculoviral constructs were created, one encoding for human CDK5 and the other encoding for human p25 with an amino-terminal glutathione-S-transferase (GST) tag. PCR amplification of full-length CDK5 was performed utilizing human brain cDNA as a template and Pfu Turbo polymerase (Strategene). The PCR product from this reaction was subcloned into the baculoviral expression vector pFASTBAC1 (Gibco/BRL). The final construct, encoding for full-length human CDK5 (base pairs 25-903 of GenBank Accession #NM_004935), is 292 amino acids long with a predicted MW of 33.3 kDa.
For p25, the active truncated form of p35, amino acids 108-307 were PCR-amplified from human fetal brain cDNA (Clontech QUICK-Clone cDNA) using the Advantage 2 PCR system (Clontech). […]
Compounds were tested for their ability to inhibit the kinase activity of recombinant baculoviral CDK5/GST-p25 using an enzyme-linked immunosorbent assay (ELISA) with time-resolved fluorescence (TRF) readout. […] The plate was gently agitated and after a few minutes, the fluorescence of the resulting solution was measured using a Multilabel Reader (Victor2 Model # 1420-018 or Envision Model # 2100). Inhibition data were analyzed using ActivityBase and IC50 curves were generated using XLFit 3.0.5.

IC50 (His6-GSK-3β): 300 to 3000 nM | IC50 (CDK5/GST-p25): 300 to 3000 nM
SMILES: O=C1Nc2ccc(F)cc2C1c1ncnc2nn(C3CCCCC3)cc12 (centres unmarked)
